Experimental data published in publication PMC10827748.

Amino acid sequences for entries named in this document (tags omitted). A change or cut given only in a name is not applied to a line headed by its entry.
UniProt O88738: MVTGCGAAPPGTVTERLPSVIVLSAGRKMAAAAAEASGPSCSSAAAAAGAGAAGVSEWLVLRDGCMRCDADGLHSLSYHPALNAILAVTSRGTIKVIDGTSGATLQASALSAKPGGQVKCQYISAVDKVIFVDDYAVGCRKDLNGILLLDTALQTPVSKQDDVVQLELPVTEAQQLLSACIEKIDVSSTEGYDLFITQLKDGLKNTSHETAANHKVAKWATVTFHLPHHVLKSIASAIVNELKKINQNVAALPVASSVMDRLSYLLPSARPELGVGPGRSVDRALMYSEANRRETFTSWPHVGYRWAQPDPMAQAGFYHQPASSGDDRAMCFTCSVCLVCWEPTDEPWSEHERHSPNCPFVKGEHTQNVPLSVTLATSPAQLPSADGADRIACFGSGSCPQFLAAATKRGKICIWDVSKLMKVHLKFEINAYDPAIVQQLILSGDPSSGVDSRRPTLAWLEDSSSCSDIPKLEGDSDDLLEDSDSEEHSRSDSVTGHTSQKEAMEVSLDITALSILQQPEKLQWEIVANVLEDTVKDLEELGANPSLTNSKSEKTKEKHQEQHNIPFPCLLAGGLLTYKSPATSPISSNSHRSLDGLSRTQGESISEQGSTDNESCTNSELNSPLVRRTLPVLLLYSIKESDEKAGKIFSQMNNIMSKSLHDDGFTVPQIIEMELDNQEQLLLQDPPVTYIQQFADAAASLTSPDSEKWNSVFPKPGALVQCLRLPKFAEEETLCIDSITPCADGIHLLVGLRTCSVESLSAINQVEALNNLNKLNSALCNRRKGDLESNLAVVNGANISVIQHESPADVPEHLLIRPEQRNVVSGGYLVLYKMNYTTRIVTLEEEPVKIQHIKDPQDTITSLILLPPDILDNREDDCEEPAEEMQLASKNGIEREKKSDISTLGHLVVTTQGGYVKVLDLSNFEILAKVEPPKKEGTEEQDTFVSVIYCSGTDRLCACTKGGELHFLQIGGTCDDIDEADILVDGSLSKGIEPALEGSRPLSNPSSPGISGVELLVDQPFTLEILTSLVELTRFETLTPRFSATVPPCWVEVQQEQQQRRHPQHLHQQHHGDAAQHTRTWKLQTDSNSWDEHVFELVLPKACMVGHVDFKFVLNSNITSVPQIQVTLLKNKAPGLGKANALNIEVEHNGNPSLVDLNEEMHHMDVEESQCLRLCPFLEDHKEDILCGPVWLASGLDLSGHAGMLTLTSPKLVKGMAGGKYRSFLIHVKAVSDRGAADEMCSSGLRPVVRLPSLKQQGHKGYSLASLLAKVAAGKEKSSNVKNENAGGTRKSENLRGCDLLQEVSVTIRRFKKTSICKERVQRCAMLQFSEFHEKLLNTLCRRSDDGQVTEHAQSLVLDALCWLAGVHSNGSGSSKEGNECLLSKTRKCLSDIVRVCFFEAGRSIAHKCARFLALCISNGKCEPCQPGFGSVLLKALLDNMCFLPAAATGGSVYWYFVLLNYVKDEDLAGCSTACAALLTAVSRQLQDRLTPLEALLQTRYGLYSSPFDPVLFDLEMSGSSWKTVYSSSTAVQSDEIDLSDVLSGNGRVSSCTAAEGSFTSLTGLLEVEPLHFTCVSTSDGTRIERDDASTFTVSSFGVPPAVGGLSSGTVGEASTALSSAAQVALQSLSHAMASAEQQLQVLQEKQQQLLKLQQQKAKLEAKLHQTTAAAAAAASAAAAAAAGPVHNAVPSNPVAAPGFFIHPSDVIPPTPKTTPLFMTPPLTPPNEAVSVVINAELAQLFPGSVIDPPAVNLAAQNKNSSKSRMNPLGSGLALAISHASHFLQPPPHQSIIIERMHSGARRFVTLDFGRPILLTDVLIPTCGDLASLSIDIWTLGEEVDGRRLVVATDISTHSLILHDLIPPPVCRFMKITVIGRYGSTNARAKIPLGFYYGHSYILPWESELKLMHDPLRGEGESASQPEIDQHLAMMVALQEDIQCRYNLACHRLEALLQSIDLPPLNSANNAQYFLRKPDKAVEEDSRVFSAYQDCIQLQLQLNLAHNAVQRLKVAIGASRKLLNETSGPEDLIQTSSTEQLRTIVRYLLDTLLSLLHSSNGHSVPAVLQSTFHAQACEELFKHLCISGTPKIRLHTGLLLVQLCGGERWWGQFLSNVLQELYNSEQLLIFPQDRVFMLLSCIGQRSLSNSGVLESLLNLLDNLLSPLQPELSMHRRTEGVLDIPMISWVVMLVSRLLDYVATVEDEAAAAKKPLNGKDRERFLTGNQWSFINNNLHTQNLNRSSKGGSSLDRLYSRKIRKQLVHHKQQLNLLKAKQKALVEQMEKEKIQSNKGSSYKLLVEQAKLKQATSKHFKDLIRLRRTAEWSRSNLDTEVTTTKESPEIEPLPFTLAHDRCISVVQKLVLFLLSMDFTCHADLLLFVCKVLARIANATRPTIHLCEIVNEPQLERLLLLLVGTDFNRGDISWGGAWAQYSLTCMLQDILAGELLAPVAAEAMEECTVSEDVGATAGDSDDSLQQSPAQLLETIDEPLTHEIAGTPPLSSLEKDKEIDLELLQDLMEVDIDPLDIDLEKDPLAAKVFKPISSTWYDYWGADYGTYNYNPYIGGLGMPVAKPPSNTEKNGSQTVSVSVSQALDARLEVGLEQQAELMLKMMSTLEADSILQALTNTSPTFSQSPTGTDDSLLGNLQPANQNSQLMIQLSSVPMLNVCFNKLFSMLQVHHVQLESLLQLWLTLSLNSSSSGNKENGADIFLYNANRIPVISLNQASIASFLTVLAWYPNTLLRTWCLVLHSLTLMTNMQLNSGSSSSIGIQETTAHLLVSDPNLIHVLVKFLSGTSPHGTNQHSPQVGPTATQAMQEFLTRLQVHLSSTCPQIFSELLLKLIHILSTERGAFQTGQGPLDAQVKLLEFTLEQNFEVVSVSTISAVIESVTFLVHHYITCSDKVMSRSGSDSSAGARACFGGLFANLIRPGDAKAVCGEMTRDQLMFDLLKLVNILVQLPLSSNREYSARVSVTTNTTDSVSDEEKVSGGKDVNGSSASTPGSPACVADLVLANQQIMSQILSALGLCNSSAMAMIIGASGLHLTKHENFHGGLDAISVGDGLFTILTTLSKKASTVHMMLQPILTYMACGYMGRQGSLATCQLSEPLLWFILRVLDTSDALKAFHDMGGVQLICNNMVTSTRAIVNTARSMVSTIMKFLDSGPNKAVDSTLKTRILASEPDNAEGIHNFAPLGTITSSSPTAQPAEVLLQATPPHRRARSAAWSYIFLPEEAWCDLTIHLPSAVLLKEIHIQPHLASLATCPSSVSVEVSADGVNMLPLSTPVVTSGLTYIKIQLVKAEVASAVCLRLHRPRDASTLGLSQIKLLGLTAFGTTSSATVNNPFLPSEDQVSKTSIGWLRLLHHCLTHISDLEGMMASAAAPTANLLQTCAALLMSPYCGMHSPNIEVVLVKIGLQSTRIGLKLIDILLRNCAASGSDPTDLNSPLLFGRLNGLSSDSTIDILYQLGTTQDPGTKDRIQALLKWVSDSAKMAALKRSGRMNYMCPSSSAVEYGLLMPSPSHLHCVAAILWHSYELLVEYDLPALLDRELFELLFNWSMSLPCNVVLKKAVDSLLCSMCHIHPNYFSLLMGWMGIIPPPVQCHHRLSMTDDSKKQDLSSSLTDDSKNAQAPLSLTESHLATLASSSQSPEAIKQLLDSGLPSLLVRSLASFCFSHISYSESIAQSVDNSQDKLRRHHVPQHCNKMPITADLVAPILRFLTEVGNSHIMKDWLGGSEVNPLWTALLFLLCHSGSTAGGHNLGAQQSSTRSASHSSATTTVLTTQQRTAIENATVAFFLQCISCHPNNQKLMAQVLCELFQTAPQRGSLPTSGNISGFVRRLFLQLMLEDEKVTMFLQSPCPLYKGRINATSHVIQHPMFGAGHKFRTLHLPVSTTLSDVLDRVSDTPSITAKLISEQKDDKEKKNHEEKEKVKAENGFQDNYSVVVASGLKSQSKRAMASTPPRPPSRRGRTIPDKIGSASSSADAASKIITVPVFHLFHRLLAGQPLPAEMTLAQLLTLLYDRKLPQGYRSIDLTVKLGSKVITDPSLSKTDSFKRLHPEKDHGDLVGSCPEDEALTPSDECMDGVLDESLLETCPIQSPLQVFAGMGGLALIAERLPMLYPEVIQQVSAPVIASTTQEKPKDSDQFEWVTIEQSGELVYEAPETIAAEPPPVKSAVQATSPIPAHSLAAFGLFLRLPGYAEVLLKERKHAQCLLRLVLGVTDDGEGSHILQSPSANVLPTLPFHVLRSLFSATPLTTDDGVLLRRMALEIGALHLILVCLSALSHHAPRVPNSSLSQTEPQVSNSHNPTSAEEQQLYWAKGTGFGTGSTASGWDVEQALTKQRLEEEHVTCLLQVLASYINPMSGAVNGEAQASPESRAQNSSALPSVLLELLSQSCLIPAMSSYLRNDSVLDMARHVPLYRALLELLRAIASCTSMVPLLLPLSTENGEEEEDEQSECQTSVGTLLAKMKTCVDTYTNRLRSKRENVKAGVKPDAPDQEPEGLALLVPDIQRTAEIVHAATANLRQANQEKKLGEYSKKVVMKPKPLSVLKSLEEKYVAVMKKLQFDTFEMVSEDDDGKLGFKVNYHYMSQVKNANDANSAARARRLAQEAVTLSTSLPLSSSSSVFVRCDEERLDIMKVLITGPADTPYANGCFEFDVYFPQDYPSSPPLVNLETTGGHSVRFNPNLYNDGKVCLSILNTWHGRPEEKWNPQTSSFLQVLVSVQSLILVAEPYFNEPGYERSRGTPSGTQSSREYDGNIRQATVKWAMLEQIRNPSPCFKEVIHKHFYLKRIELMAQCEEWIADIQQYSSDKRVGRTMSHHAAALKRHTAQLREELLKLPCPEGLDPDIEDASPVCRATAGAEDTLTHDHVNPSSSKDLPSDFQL

Assays:
[1] = biological target: His-tagged N1 region of BIRC6 (aa 27-358) (mouse) (UniProt O88738); experiment: pull-down; His-tagged N1 or N2 region of BIRC6 with the LIR1 peptide in vitro; both purified
[2] = biological target: His-tagged N2 region of BIRC6 (aa 358-543) (mouse) (UniProt O88738); experiment: as above

binding [1]: binds
binding [2]: no binding
B1: BIRC6-LIR1 peptide (peptide)
peptide: NPQTSSFLQVLV

These are yes or no findings as the source states them, for the method shown. For some assays here: Binding calls can cover weak binding; strength is not graded here.
